Test results published in patent publication US4280993A, “Process for determining the concentration of benzodiazepines in a body fluid” (priority 1978, dated 1981).

How the values were obtained:
brain membranes = conditions: cited from earlier work

SMILES | specific binding capacity, hippocampus (rat brains) | specific binding, frontal and occipital cortex versus pons-medulla (rat brains) | specific binding to brain membranes (brain membranes)
CN1C(=O)CN=C(c2ccccc2)c2cc(Cl)ccc21 [^3 H-diazepam] | intermediate binding capacity | four times higher | 
CN1C(=O)CN=C(c2ccccc2)c2cc(Cl)ccc21 [diazepam] |  |  | specifically binds to brain membranes with high affinity
